# Results reported in PubChem BioAssay AID2685 (National Center for Advancing Translational Sciences (NCATS), 2010).
# Where “and” joins values, the source holds several entries; their conditions need not be identical. Equal entries are not always repeated. The list shows a part of the results. These are further read-outs of the screen, such as a control signal, another cell line or another target. No call is given for them. Most of these compounds were active or inconclusive in the main read-out, so they are no random draw. Words in brackets tell the shape of the fitted curve; partial curves, single points and poor fits give uncertain potencies.
# Assay: qHTS Assay for Lipid Storage Modulators in Drosophila S3 Cells;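 as to cell number change: cells counted by Cell Tracker Red CMTPX staining in the red channel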
# Conditions: BODIPY lipid droplet fluorescence, 18-24 h; for cell number change: measured here: cell count max response, cells fed with added oleic acid
# Method in brief: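 Laser-scanning cytometry quantifies lipid droplet accumulation (500–530 nm total intensity; droplet/cell object ratio) in oleic acid-fed (400 uM added) Drosophila S3 cells treated with a concentration series. 20 uM Triacsin C defined 100% inhibition.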
# [1] = measured here: lipid fluorescence (Fed channel) AC50, cells fed with added oleic acid
# [2] = measured here: cell number channel AC50, cells fed with added oleic acid
SMILES,cell number change,AC50 [1],AC50 [2]
CC(C(=O)NC(N)=O)N1C(=O)NC(c2ccccc2)(c2ccccc2)C1=O (centres undefined),7.14%,"29.1 µM [rising, single point]",–
O=C(Cc1c2ccccc2nc2ccccc12)c1ccccc1,15.8%,"0.206 µM [rising, full curve]",–
O=C(CCCn1c(=S)[nH]c2ccccc2c1=O)N1CCCCC1,15.6%,–,"2.31 µM [rising, partial curve, poor fit]"
CCCCCCn1c(-c2ccco2)nc2oc3cc(OC)ccc3c(=O)c2c1=O,–,–,"0.366 µM [rising, full curve, poor fit]"
Cc1ccc(-c2nn(-c3ccccc3)cc2CO)cc1,4.96%,–,"0.058 µM [falling, partial curve, poor fit]"
O=C(Cn1nnc(-c2ccc(Cl)cc2)n1)N1CCN(C(=O)c2ccco2)CC1,14.8%,–,–
CCN(CCO)Cc1csc2ccc(C(C)(C)C)cc12,1.22%,"10.3 µM [falling, partial curve, poor fit]",–
COc1ccc(C(=O)O)cc1S(=O)(=O)N1CCN(c2ccccn2)CC1,–,"1.84 µM [falling, partial curve]",–
CN1C[C@@H]2C(c3ccccc3)C3(c4ccccc4)CC2(C3)[C@H]1c1ccccc1 (some centres undefined),-30.9%,"14.6 µM [falling, single point]","13 µM [falling, single point]"
CCCN1C(=O)/C(=C/c2cc(C)n(C)c2C)SC1=Nc1ccc(OC)cc1,130%,"29.1 µM [rising, single point]",–
O=C(COc1ccc(S(=O)(=O)Nc2ccc(Cl)cc2)cc1)N1CCOCC1,-11.4%,"1.84 µM [rising, partial curve, poor fit]",–
O=C(CSc1nc2[nH]ncc2c(=O)[nH]1)c1ccccc1,30.1%,"6.51 µM [rising, single point]","7.31 µM [rising, single point]"
CC1=C(C(=O)OC2CCCCCCC2)C(c2cc3c(cc2Br)OCO3)CC(=O)N1 (centres undefined),-92.5%,"29.1 µM [falling, single point]",–
COc1ccc(C)cc1NC(=O)Cn1cnc2sc(C)c(S(=O)(=O)N3CCOCC3)c2c1=O,8.06%,"25.9 µM [falling, single point]",–
COc1ccc(CCn2c(=N)c(C(=O)NCC3CCCO3)cc3c(=O)n4cccc(C)c4nc32)cc1OC (centres undefined),-1.79%,"29.1 µM [falling, single point]",–
Cc1cc(NC(=O)CCC(=O)N(c2ccccc2F)C(C(=O)NC2CCCC2)c2ccccc2)no1 (centres undefined),7.83%,–,–
C=C(C)Cn1c(=S)[nH]c2ccccc2c1=O,27%,"0.58 µM [rising, full curve]","0.146 µM [rising, full curve]"
CCOC(=O)c1c(NC(=S)Nc2ccccc2)sc2c1CCN(C)C2,-24.4%,"4.61 µM [falling, full curve, poor fit]",–
COc1ccc(OCC(=O)N2CCOCC2)cc1,-6.08%,"3.26 µM [falling, partial curve]",–

SMILES,cell number change,AC50 [1],AC50 [2]
O=C(Cn1c(COc2ccccc2)nc2ccccc21)Nc1cccc(Cl)c1,-15.1%,"3.66 µM [falling, single point]","6.51 µM [falling, single point]"
O=C(CNC(=O)c1ccc(Cl)cc1Cl)OCc1ccccc1,-17.3%,–,–
CCOC(=O)c1ccc(S(=O)(=O)NNC(=O)c2ccc3c(c2)nc(C)n3CC)cc1,–,"18.4 µM [rising, partial curve]",–
O=C(NCc1nnc(SCC(=O)N2CCCCCC2)o1)c1ccccc1F,-0.283%,"0.82 µM [falling, full curve, poor fit]",–
O=C(NCCCc1ccccc1)c1ccccc1,24.3%,"0.651 µM [falling, single point]",–
Cc1ccccc1NC(=O)CN1C(=O)NC2(CCc3ccccc32)C1=O (centres undefined),2.88%,"3.66 µM [falling, full curve]",–
Cc1ccc(-n2nc(-c3ccco3)cc2C(=O)O)cc1,11.5%,"18.4 µM [rising, partial curve, poor fit]",–
COC(=O)c1sc(NC(=O)CSc2nncs2)c(C(=O)OC)c1C,34%,–,"1.16 µM [rising, full curve]"
Brc1cc2c(cc1Cn1c(-c3cncs3)nc3ccccc31)OCO2,–,"2.06 µM [rising, partial curve]","2.06 µM [rising, partial curve]"
Oc1ccc2ccccc2c1N=Nc1ccc(F)cc1,-63.8%,"18.4 µM [falling, single point] and 2.91 µM [falling, full curve]","20.6 µM [falling, single point]"
CS(=O)(=O)N1CCc2cc(C(=O)N3CCCC3)ccc21,-27.7%,"0.731 µM [falling, full curve]","0.291 µM [falling, full curve, poor fit]"
O=c1c2ccccc2nc2n1CCN2Cc1ccc(Cl)cc1,30.9%,"1.46 µM [rising, full curve]","0.651 µM [rising, full curve, poor fit]"
COc1ccc(CNS(=O)(=O)c2cc3c4c(c2)C(C)C(=O)N4CCC3)cc1 (centres undefined),-3.05%,–,–
COC(=O)c1[nH]c2ccc(Cl)cc2c1NC(=O)CN1CCC(C(N)=O)CC1,-0.259%,"16.4 µM [rising, partial curve]",–
Cc1ccc(/C=N/NC(=O)COc2ccccc2-c2ccccc2)cc1,-32.4%,"1.16 µM [falling, full curve, poor fit]","29.1 µM [falling, single point]"
CNC(=S)Nc1ccc([N+](=O)[O-])cc1,-3.72%,–,–
CCN(CC(=O)Nc1c(F)cccc1F)C(=O)CNC(=O)c1ccc2ccccc2c1,-3.73%,"4.11 µM [rising, single point]",–
COc1cccc(C(C)NC(=O)C2CCCO2)c1 (centres undefined),26.4%,"29.1 µM [rising, single point]",–

# A different layout for part of the listing above:
SMILES	cell number change	AC50 [1]	AC50 [2]
O=C(CSc1nc2[nH]ncc2c(=O)[nH]1)c1ccccc1	30.1%	6.51 µM [rising, single point]	7.31 µM [rising, single point]
CC1=C(C(=O)OC2CCCCCCC2)C(c2cc3c(cc2Br)OCO3)CC(=O)N1 (centres undefined)	-92.5%	29.1 µM [falling, single point]	–
